PubChem BioAssay AID1259308 – NCATS, 2017

Purpose: 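Knock-downs that increase output of a recombinant reporter protein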 (primary screen)
Cells: human HEK293 embryonic kidney cells stably expressing firefly luciferase (HEK-CMV-Luc2-Hygro)
Reagents: single siRNA against human genes, 0.8 pmol siRNA per well
Time to read-out: 72 h
Detection: 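Luciferase light (ONE-Glo) measured on one replicate plate set and viability (CellTiter-Glo) on the other, scaled to a negative control siRNA, with robust z-scores and luciferase per cell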
Direction: total luciferase, z-score: higher = more reporter protein produced
Rule for the call: 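Active when the median/MAD z-score for overall luciferase is greater than 3; a gene was taken forward for validation with new siRNAs if at least two of its three siRNAs passed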
Meaning of the calls: active = raised luciferase; inactive = no rise
Shown is one part, drawn at random, of about 59,000 deposited reagents. About 1,510 of them (2.6%) were called active. 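Calls use total luciferase alone and ignore viability, so some active siRNAs may act by altering cell number.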 The numbers tell different reagents against one gene apart. Further read-outs or replicates are left out here.

{"gene symbol": "SLC49A3", "reagent": 1, "total luciferase, z-score": -0.742, "activity call": "inactive"}
{"gene symbol": "SLC49A3", "reagent": 2, "total luciferase, z-score": 0.192, "activity call": "inactive"}
{"gene symbol": "SLC49A3", "reagent": 3, "total luciferase, z-score": 0.65, "activity call": "inactive"}
{"gene symbol": "PKN3 (protein kinase N3)", "reagent": 1, "total luciferase, z-score": -0.72, "activity call": "inactive"}
{"gene symbol": "PKN3 (protein kinase N3)", "reagent": 2, "total luciferase, z-score": 1.63, "activity call": "inactive"}
{"gene symbol": "PKN3 (protein kinase N3)", "reagent": 3, "total luciferase, z-score": 0.669, "activity call": "inactive"}
{"gene symbol": "C3orf18 (chromosome 3 open reading frame 18)", "reagent": 1, "total luciferase, z-score": 0.249, "activity call": "inactive"}
{"gene symbol": "C3orf18 (chromosome 3 open reading frame 18)", "reagent": 2, "total luciferase, z-score": 1.51, "activity call": "inactive"}
{"gene symbol": "C3orf18 (chromosome 3 open reading frame 18)", "reagent": 3, "total luciferase, z-score": -0.856, "activity call": "inactive"}
{"gene symbol": "PID1 (phosphotyrosine interaction domain containing 1)", "reagent": 1, "total luciferase, z-score": -1.27, "activity call": "inactive"}
{"gene symbol": "PID1 (phosphotyrosine interaction domain containing 1)", "reagent": 2, "total luciferase, z-score": -0.145, "activity call": "inactive"}
{"gene symbol": "PID1 (phosphotyrosine interaction domain containing 1)", "reagent": 3, "total luciferase, z-score": 0.933, "activity call": "inactive"}
{"gene symbol": "HNRNPA1L2 (heterogeneous nuclear ribonucleoprotein A1 like 2)", "reagent": 1, "total luciferase, z-score": 0.85, "activity call": "inactive"}
{"gene symbol": "HNRNPA1L2 (heterogeneous nuclear ribonucleoprotein A1 like 2)", "reagent": 2, "total luciferase, z-score": 0.293, "activity call": "inactive"}
{"gene symbol": "HNRNPA1L2 (heterogeneous nuclear ribonucleoprotein A1 like 2)", "reagent": 3, "total luciferase, z-score": 2.59, "activity call": "inactive"}
{"gene symbol": "PKLR (pyruvate kinase L/R)", "reagent": 1, "total luciferase, z-score": -0.101, "activity call": "inactive"}
{"gene symbol": "PKLR (pyruvate kinase L/R)", "reagent": 2, "total luciferase, z-score": 4.37, "activity call": "active"}
{"gene symbol": "PKLR (pyruvate kinase L/R)", "reagent": 3, "total luciferase, z-score": -0.99, "activity call": "inactive"}
{"gene symbol": "CEACAM4 (CEA cell adhesion molecule 4)", "reagent": 1, "total luciferase, z-score": -0.166, "activity call": "inactive"}
{"gene symbol": "CEACAM4 (CEA cell adhesion molecule 4)", "reagent": 2, "total luciferase, z-score": -0.597, "activity call": "inactive"}
{"gene symbol": "CEACAM4 (CEA cell adhesion molecule 4)", "reagent": 3, "total luciferase, z-score": 2.04, "activity call": "inactive"}
{"gene symbol": "DNMBP (dynamin binding protein)", "reagent": 1, "total luciferase, z-score": 1.14, "activity call": "inactive"}
{"gene symbol": "DNMBP (dynamin binding protein)", "reagent": 2, "total luciferase, z-score": 0.738, "activity call": "inactive"}
{"gene symbol": "DNMBP (dynamin binding protein)", "reagent": 3, "total luciferase, z-score": 0.229, "activity call": "inactive"}
{"gene symbol": "PITRM1 (pitrilysin metallopeptidase 1)", "reagent": 1, "total luciferase, z-score": 0.848, "activity call": "inactive"}
{"gene symbol": "PITRM1 (pitrilysin metallopeptidase 1)", "reagent": 2, "total luciferase, z-score": 0.996, "activity call": "inactive"}
{"gene symbol": "PITRM1 (pitrilysin metallopeptidase 1)", "reagent": 3, "total luciferase, z-score": 0.543, "activity call": "inactive"}
{"gene symbol": "CAMKV (CaM kinase like vesicle associated)", "reagent": 1, "total luciferase, z-score": -0.469, "activity call": "inactive"}
{"gene symbol": "CAMKV (CaM kinase like vesicle associated)", "reagent": 2, "total luciferase, z-score": 1.88, "activity call": "inactive"}
{"gene symbol": "CAMKV (CaM kinase like vesicle associated)", "reagent": 3, "total luciferase, z-score": -1.85, "activity call": "inactive"}
{"gene symbol": "SSX1 (SSX family member 1)", "reagent": 1, "total luciferase, z-score": -1.11, "activity call": "inactive"}
{"gene symbol": "SSX1 (SSX family member 1)", "reagent": 2, "total luciferase, z-score": 1.93, "activity call": "inactive"}
{"gene symbol": "SSX1 (SSX family member 1)", "reagent": 3, "total luciferase, z-score": -2.1, "activity call": "inactive"}

Laid out differently: entries from further up.
gene symbol | reagent | total luciferase, z-score | activity call
PITRM1 (pitrilysin metallopeptidase 1) | 1 | 0.848 | inactive
PITRM1 (pitrilysin metallopeptidase 1) | 2 | 0.996 | inactive
